Results are given in words; binding and its absence hold for the method and conditions named.
Molecular target: T1, human ferroportin (FPN), wild type, reconstituted in lipid nanodisc (human), Q9NP59
T1 chain: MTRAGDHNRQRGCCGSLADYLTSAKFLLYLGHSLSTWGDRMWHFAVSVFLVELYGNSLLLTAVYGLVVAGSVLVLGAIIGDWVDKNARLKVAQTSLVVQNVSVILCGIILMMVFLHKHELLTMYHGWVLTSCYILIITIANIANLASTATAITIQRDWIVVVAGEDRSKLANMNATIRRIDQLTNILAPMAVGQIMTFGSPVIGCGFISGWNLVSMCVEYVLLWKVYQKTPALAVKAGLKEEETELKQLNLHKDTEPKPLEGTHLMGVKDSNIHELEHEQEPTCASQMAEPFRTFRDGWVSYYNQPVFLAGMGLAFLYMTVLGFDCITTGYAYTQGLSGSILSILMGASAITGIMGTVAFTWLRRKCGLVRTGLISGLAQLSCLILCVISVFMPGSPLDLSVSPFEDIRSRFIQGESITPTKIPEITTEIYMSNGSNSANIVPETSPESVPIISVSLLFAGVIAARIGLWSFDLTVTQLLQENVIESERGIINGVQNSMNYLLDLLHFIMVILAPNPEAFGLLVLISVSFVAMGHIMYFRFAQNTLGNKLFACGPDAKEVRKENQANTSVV
Assay: cryo-EM structure
Details: remark: other sources report otherwise

B1: human ferroportin (FPN), wild type, reconstituted in lipid nanodisc, Q9NP59 1-571 (protein)
chain: T1 chain
With B1 the binding was “no binding”.
